Measurements taken from publication PMC10933316.
No constants are given. Whether binding was seen depends on the method and setting. Binding seen in cells or lysates may run through a third protein. Here binding means that the protein was enriched with, or labelled near, the bait; the list need not be complete. Blank lines part the entries; values can stand above or below the molecule they belong to.

The chains behind the UniProt entries cited, without tags or fusion partners.
UniProt Q9D4H8: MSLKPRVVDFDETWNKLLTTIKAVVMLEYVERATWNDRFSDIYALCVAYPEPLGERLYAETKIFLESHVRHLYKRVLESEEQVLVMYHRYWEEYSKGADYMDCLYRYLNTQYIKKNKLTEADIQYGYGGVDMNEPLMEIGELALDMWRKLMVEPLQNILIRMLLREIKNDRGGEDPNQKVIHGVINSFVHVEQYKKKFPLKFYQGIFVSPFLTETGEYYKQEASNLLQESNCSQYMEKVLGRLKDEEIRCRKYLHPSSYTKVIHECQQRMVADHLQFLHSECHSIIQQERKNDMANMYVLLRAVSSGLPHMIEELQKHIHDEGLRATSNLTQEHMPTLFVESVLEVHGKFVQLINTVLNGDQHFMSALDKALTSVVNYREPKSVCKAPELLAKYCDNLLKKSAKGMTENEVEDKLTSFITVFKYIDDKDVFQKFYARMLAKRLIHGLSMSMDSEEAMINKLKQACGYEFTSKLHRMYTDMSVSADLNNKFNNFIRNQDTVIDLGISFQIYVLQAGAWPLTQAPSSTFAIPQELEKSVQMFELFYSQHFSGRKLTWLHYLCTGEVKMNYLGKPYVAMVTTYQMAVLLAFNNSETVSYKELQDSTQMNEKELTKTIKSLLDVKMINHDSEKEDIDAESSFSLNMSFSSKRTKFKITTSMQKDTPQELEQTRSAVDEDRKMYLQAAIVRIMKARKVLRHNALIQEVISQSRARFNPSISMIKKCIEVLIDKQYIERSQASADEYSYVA

Legend:
[1] = target: T1, H/F-PRAMEL7WT (ESC line) (mouse) (UniProt Q810Y8); assay: affinity purification with mass spectrometry; HA-IP (anti-HA magnetic beads, overnight, 4 °C) from MNase-treated extracts (150 mM NaCl) of ESC + H/F-PRAMEL7WT, ESC + H/F-PRAMEL7ΔN and parental ESCs; on-bead tryptic digestion, LC-MS/MS; two independent experiments
T1 sequence: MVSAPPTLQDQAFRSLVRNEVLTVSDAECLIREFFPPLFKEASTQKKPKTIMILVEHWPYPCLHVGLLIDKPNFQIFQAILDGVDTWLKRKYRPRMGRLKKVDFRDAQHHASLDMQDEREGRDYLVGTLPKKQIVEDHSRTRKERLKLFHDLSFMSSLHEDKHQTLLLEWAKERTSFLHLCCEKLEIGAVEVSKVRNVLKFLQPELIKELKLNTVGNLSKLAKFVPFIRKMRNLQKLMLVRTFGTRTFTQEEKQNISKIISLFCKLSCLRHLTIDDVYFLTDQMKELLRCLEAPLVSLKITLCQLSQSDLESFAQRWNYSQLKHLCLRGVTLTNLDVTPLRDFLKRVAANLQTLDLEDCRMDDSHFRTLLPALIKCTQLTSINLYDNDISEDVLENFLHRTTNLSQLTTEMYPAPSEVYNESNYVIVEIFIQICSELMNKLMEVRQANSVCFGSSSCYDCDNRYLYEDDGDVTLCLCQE

[2] = target: T2, H/F-PRAMEL7ΔN (ESC line) (mouse) (UniProt Q810Y8); assay: as above
T2 sequence: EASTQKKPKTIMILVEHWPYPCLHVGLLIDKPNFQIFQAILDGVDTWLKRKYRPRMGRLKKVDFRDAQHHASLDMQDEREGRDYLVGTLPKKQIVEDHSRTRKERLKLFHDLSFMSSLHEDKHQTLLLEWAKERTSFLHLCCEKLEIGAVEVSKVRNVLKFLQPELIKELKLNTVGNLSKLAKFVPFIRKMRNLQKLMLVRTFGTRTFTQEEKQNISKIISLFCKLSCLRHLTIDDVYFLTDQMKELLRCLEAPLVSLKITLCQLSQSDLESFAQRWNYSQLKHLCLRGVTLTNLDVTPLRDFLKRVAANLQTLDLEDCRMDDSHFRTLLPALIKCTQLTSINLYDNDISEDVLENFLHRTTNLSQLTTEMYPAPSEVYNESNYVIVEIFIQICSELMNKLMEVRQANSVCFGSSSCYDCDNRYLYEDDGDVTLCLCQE

[3] = target: Cullin2 (CUL2), endogenous in mouse ESCs (mouse (endogenous in ESCs)) (UniProt Q9D4H8); assay: affinity purification with mass spectrometry; CUL2-chromatin-IP: DSP-crosslinked, MNase-digested chromatin of ESC + H/F-PRAMEL7WT against parental ESCs, Cullin2 antibody and Dynabeads protein A, LC-MS/MS; fold changes ≥ 3; two independent experiments

binding [1]: binds
Molecule: Cullin2 (CUL2), endogenous in mouse ESCs (from UniProt Q9D4H8 1-745)

binding [2]: binds
binding [3]: binds
B1: UHRF1 (protein, UniProt Q8VDF2 1-782)
chain: MWIQVRTMDGKETHTVNSLSRLTKVQELRKKIEEVFHVEPQLQRLFYRGKQMEDGHTLFDYDVRLNDTIQLLVRQSLALPLSTKERDSELSDSDSGYGVGHSESDKSSTHGEGAAEADDKTVWEDTDLGLYKVNEYVDVRDNIFGAWFEAQVVQVQKRALSEDEPCSSSAVKTSEDDIMYHVKYDDYPEHGVDIVKAKNVRARARTVIPWENLEVGQVVMANYNVDYPRKRGFWYDVEICRKRQTRTARELYGNIRLLNDSQLNNCRIMFVDEVLMIELPKERRPLIASPSQPPPALRNTGKSGPSCRFCKDDENKPCRKCACHVCGGREAPEKQLLCDECDMAFHLYCLKPPLTSVPPEPEWYCPSCRTDSSEVVQAGEKLKESKKKAKMASATSSSRRDWGKGMACVGRTTECTIVPANHFGPIPGVPVGTMWRFRVQVSESGVHRPHVAGIHGRSNDGAYSLVLAGGYEDDVDNGNYFTYTGSGGRDLSGNKRTAGQSSDQKLTNNNRALALNCHSPINEKGAEAEDWRQGKPVRVVRNMKGGKHSKYAPAEGNRYDGIYKVVKYWPERGKSGFLVWRYLLRRDDTEPEPWTREGKDRTRQLGLTMQYPEGYLEALANKEKSRKRPAKALEQGPSSSKTGKSKQKSTGPTLSSPRASKKSKLEPYTLSEQQANLIKEDKGNAKLWDDVLTSLQDGPYQIFLSKVKEAFQCICCQELVFRPVTTVCQHNVCKDCLDRSFRAQVFSCPACRFELDHSSPTRVNQPLQTILNQLFPGYGSGR

binding [2]: binds
binding [3]: binds
B2: SND1 (protein, UniProt Q78PY7 1-910)
chain: MASSAQSSGSSGGPAVPTVQRGIVKMVLSGCAIIVRGQPRGGPPPERQINLSNIRAGNLARRAAATQPDGKDTPDEPWAFPAREFLRKKLIGKEVCFTIENKTPQGREYGMIYLGKDTNGENIAESLVAEGLATRREGMRANNPEQNRLSECEEQAKASKKGMWSEGNGSHTIRDLKYTIENPRHFVDSHHQKPVNAIIEHVRDGSVVRALLLPGHHLVTVMLSGIKCPTFRRETDGSETPEPFAAEAKFFTESRLLQRDVQIILESCHNQNLLGTILHPNGNITELLLKEGFARCVDWSIAVYTRGAEKLRAAERFAKERRLRIWRDYVPPTANLDQKDKQFVAKVMQVLNADAIVVKLNSGDYKTIHLSSIRPPRLEGDNIQDKNKKLRPLYDIPYMFEAREFLRKKLIGKKVNVTVDYIRPASPATETVPAFSERTCATVTIGGINIAEALVSKGLATVIRYRQDDDQRSSHYDELLAAEARAIKNGKGLHSKKEVPIHRVADISGDTQKAKQFLPFLQRAGRSEAVVEYVFSGSRLKLYLPKETCLITFLLAGIECPRGARNLPGLVQEGEPFSEEATLFTKELVLQREVEVEVESMDKAGNFIGWLHMDGANLSVLLVEQALSKVHFTAERSAYYKPLLSAEEAAKQRKEKVWAHYEERPVEEVMPVLEEKERSASYKPVFVTEITDDLHFYVQDVETGTQLEKLMENMRNDISSHPPVEGSYAPRRGEFCIAKFVDGEWYRARVEKVESPAKVHVFYIDYGNREILPSTRLGTLPPAFSTRVLPAQATEYAFAFIQVPQDEDARTDAVDSVVRDIQNTQCLLNVEHLSASCPHVTLQFADSKGDVGLGLVKEGLVMVEVRKEKQFQKVITEYLNAQESAKSARLNLWRYGDFRADDADEFGYSR
